Patent US4782043A (Merck & Co., Inc., priority 1985, dated 1988)

Assay: general procedure: Boc solid-phase peptide synthesis; BOC-Phe esterified to 2% cross-linked polystyrene-divinylbenzene; dicyclohexylcarbodiimide with 1-hydroxybenzotriazole hydrate
Conditions: cyclisation step, TLC

Row | Substance | final HPLC purity (side-chain lactam ring, sequence written open) [%] | final HPLC purity [%]
1 | Isobutyryl-L-Histidyl-L-Prolyl-L-Phenylalanyl-L-Lysyl-(3S,4S)-Statyl-L-Leucyl-L-Phenylalanine | 99.8 | 
2 | N-isobutyryl-L-Histidyl-L-Prolyl-L-Phenylalanyl-L-Homolysyl-(3S,4S)-Statyl-L-Leucyl-L-Phenylalanyl |  | 88.9
